The assay has as its target Flag-tagged human BACH1 lacking the BTB domain (BACH1^ΔBTB) (human). In words: co-IP; HEK293T cells co-transfected with PTP1B-HA or IR-β-GFP and Flag-tagged BACH1 (full or lacking the BTB domain); precipitated with anti-Flag, blot with anti-HA or anti-GFP.

Results are given in words; binding and its absence hold for the method and conditions named. Binding seen in cells or lysates may run through a third protein. Sequences can lack the tags named with a protein.

B1: human PTP1B-HA (enzyme, UniProt P18031 1-435)
chain: MEMEKEFEQIDKSGSWAAIYQDIRHEASDFPCRVAKLPKNKNRNRYRDVSPFDHSRIKLHQEDNDYINASLIKMEEAQRSYILTQGPLPNTCGHFWEMVWEQKSRGVVMLNRVMEKGSLKCAQYWPQKEEKEMIFEDTNLKLTLISEDIKSYYTVRQLELENLTTQETREILHFHYTTWPDFGVPESPASFLNFLFKVRESGSLSPEHGPVVVHCSAGIGRSGTFCLADTCLLLMDKRKDPSSVDIKKVLLEMRKFRMGLIQTADQLRFSYLAVIEGAKFIMGDSSVQDQWKELSHEDLEPPPEHIPPPPRPPKRILEPHNGKCREFFPNHQWVKEETQEDKDCPIKEEKGSPLNAAPYGIESMSQDTEVRSRVVGGSLRGAQAASPAKGEPSLPEKDEDHALSYWKPFLVNMCVATVLTAGAYLCYRFLFNSNT
For the molecule B1, the binding entry is given as “no binding”.

These data come from PMC10739811.
